Data reported in PubChem BioAssay AID651640 (Broad Institute, 2012).
Screen size: about 350,000 compounds; about 6,000 (1.7%) were called active. The inconclusive results got no clear call from the source; some entries with a clear call stand among them for comparison. No stated cut-off is given here; in the data, active means CPE inhibition above about 20% (passing the limit was not always enough); inconclusive means no clear call, values can overlap the other calls; tested in BHK-21 cells.

Test: protection of cells from dengue 2 killing – plate reader, single concentration, primary screen (AID 651640);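 further: 0% = median of neutral control wells and 100% = median of positive control wells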
Details: DENV2-infected cells, cytopathic effect rescue, at 9.99 µM, hits give high values

Row | SMILES | CPE inhibition
1 | N#Cc1ccccc1OCC(=O)Nc1ccc(N2CCOCC2)cc1N1CCOCC1 | inconclusive: 62.1%
2 | C[C@H]1CN([C@@H](C)CO)C(=O)c2cc(-c3ccncc3)cnc2O[C@@H]1CN(C)C(=O)c1cccc(F)c1 | inconclusive: 20.2%
3 | C/C=C/c1cnc2c(c1)C(=O)N([C@@H](C)CO)C[C@@H](C)[C@H](CN(C)S(=O)(=O)c1ccc(F)cc1)O2 | inconclusive: 56.6%
4 | COc1cc(CNc2ncnc3c2ncn3[C@H]2CN(Cc3cccc(C(F)(F)F)c3)C[C@@H](CO)O2)cc(OC)c1OC | inconclusive: 71.4%
5 | Cc1ccccc1OCC(=O)OCC(=O)NCCNC(=O)COC(=O)COc1ccccc1C | active: 44.2%
6 | Cc1noc(C)c1C(=O)N1CCC1(C)C(=O)NS(=O)(=O)Cc1cccc(Cl)c1 (stereo not drawn) | inactive: 3.74%
7 | O=C(N/N=C/c1ccc(O)c(O)c1)N/N=C/c1ccc(O)c(O)c1 | inconclusive: 20.7%
8 | COc1ccc(-c2ccc([C@H]3[C@H]4CN(C(=O)C5CCC5)CC(=O)N4[C@H]3CO)cc2)cc1 | inactive: -10.8%
9 | Cc1noc(C)c1S(=O)(=O)N(C)C[C@H]1OCCCC[C@@H](C)Oc2ccc(NC(=O)c3ccccc3)cc2C(=O)N([C@@H](C)CO)C[C@@H]1C | inactive: -1.47%
10 | C[C@@H]1CCCCO[C@H](CN(C)S(=O)(=O)c2cn(C)cn2)[C@@H](C)CN([C@@H](C)CO)C(=O)c2cc(NC(=O)c3ccncc3)ccc2O1 | inactive: 1.9%
11 | C[C@H]1CN([C@@H](C)CO)C(=O)Cc2cc(NC(=O)C3CC3)ccc2O[C@H]1CN(C)S(C)(=O)=O | inactive: 0.897%
12 | COc1cccc(C(=O)NC23CC4CC(CC(C4)C2)C3)c1 | inconclusive: 22.1%
13 | N#CCc1ccc(-c2cccc3nccn23)cc1 | inconclusive: 71.4%
14 | CO[C@@H]1CN(C)C(=O)c2cc(NC(C)=O)ccc2OC[C@H](C)N(C(=O)C2CC2)C[C@@H]1C | inactive: 2.44%
15 | COc1cc2c(cc1OC)C(c1c(Cl)cccc1Cl)NC(=O)C2 (stereo not drawn) | inactive: -1.56%
16 | Cc1noc(C)c1NC(=O)NCC[C@H]1CC[C@H](NC(=O)Cc2cccnc2)[C@@H](CO)O1 | inactive: 3.16%
17 | CCN1CCN(C(=O)NC2CC(=O)N(c3ccc(OC)cc3)C2)CC1 (stereo not drawn) | inconclusive: 23%
18 | O=C(COC(=O)c1cncc(Br)c1)Nc1ccc(S(=O)(=O)N2CCOCC2)cc1 | inconclusive: 51.2%
19 | Cc1ccc(S(=O)(=O)N2CCC(C(=O)NCC3CC3)CC2)cc1 | inconclusive: 22.5%
20 | Cc1noc(C)c1NC(=O)N(C)C[C@@H]1Oc2ccc(NC(=O)Cc3ccccc3)cc2C(=O)N([C@@H](C)CO)C[C@@H]1C | inconclusive: 32.8%
21 | COc1cc(N)c(C(O)c2nccc3cc(OC)c(OC)cc23)cc1OC (stereo not drawn) | inactive: 0.596%
22 | CC(C)Oc1cccc(C(=O)C2CCCN(C(=O)c3ccccn3)C2)c1 (stereo not drawn) | inconclusive: 33.1%

Row | SMILES | CPE inhibition
23 | C[C@@H]1CN([C@@H](C)CO)C(=O)c2cc(NC(=O)C3CCCCC3)ccc2O[C@@H]1CN(C)Cc1ccc(C(F)(F)F)cc1 | inconclusive: 23.3%
24 | COc1ccc(NC(=O)Nc2ccc3c(c2)C(=O)N([C@H](C)CO)C[C@H](C)[C@H](CN(C)Cc2ccc(-c4ccccc4)cc2)O3)cc1 | inconclusive: 50.7%
25 | N#C[C@@H]1N[C@@H](CO)[C@H]1c1ccc(C#CC2CCCC2)cc1 | active: 20.6%
26 | COc1ccc(S(=O)(=O)Nc2ccc3c(c2)CC(=O)N([C@H](C)CO)C[C@@H](C)[C@@H](CN(C)S(=O)(=O)c2ccc(OC)cc2)O3)cc1 | inconclusive: 28.7%
27 | CN(C)c1cccc(C(=O)N(Cc2ccccc2)Cc2ccccc2)c1 | inconclusive: 55%
28 | COc1ccc2c3c(n(C)c2c1)[C@@H](CO)N(C(=O)c1ccccc1)CC31CN(CC2CC2)C1 | inconclusive: 38.1%
29 | Cc1ccccc1S(=O)(=O)N1CC[C@@H]2[C@H]1c1cc(C#Cc3ccccc3)ccc1N[C@@H]2CO | inconclusive: 37.7%
30 | CC(C)c1cn(CC[C@H]2CC[C@H](NS(=O)(=O)Cc3ccccc3)[C@@H](CO)O2)nn1 | inactive: 3.67%
31 | CC[C@]12c3[nH]c4ccc(OC)cc4c3CCN1C(=O)C(CC(=O)NCCc1ccccn1)C[C@@H]2C(=O)N1CCN(C(=O)C2CC2)CC1 (stereo partly drawn) | inconclusive: 47.5%
32 | COc1ccc(-c2nnc3ccc(SCC(=O)N4CCOCC4)nn23)cc1 | inconclusive: 45.6%
33 | CN(CC(=O)Nc1ccc(F)c(F)c1F)C(=O)c1ccc2c(c1)S(=O)(=O)N=C1CCCCCN12 | inconclusive: 29.5%
34 | COC(=O)c1sc(C(F)(F)F)c(-c2ccccc2)c1S(=O)(=O)NC(C)(C)C | inconclusive: 24.8%
35 | Cc1ccc(NC(=O)COC(=O)CNC(=O)C2CCCCC2)cc1S(=O)(=O)N(C)C | inactive: -3.57%
36 | Cc1noc(C)c1NC(=O)Nc1ccc2c(c1)C(=O)N([C@@H](C)CO)C[C@H](C)[C@@H](CN(C)S(=O)(=O)c1ccc(F)cc1)OCCCC[C@@H](C)O2 | inconclusive: 34%
37 | CC(C)(C)CC(C)(C)c1ccc(OCCOCC[N+](C)(C)Cc2ccccc2)cc1 | inactive: 9.14%
38 | CC=Cc1ccc2n(c1=O)C[C@H]1[C@H](CO)[C@@H](C(=O)N3CCCCC3)[C@@H]2N1Cc1ccccn1 (mixture of isomers) | inactive: 3.64%
39 | O=C(NNC(=O)c1ccc(Br)o1)c1csc(N2CCOCC2)n1 | inconclusive: 21.6%
40 | COc1ccc(S(=O)(=O)N(C)C[C@@H]2OCCCC[C@@H](C)Oc3ccc(NC(=O)Nc4ccc(C(F)(F)F)cc4)cc3C(=O)N([C@H](C)CO)C[C@H]2C)cc1 | active: 22.4%
41 | CCCS(=O)(=O)c1ccc(COC(=O)c2cccc(NC(=O)C(C)C)c2)cc1 | inactive: -1.38%
42 | CC[C@H](C)[C@@H]1NC(=O)c2cc([N+](=O)[O-])cc(I)c2SC[C@@H](C(N)=O)NC(=O)[C@H](CCCCN)NC1=O | inconclusive: 28.2%
43 | CN1c2ccc(-c3ccccc3)cc2[C@@H]2[C@@H](CCN2C(=O)CN2CCOCC2)[C@@H]1CO | inconclusive: 73.9%

Exported as a markdown table: part of the list above.

| Row | SMILES | CPE inhibition |
| --- | --- | --- |
| 24 | COc1ccc(NC(=O)Nc2ccc3c(c2)C(=O)N([C@H](C)CO)C[C@H](C)[C@H](CN(C)Cc2ccc(-c4ccccc4)cc2)O3)cc1 | inconclusive: 50.7% |
| 26 | COc1ccc(S(=O)(=O)Nc2ccc3c(c2)CC(=O)N([C@H](C)CO)C[C@@H](C)[C@@H](CN(C)S(=O)(=O)c2ccc(OC)cc2)O3)cc1 | inconclusive: 28.7% |
| 28 | COc1ccc2c3c(n(C)c2c1)[C@@H](CO)N(C(=O)c1ccccc1)CC31CN(CC2CC2)C1 | inconclusive: 38.1% |
| 29 | Cc1ccccc1S(=O)(=O)N1CC[C@@H]2[C@H]1c1cc(C#Cc3ccccc3)ccc1N[C@@H]2CO | inconclusive: 37.7% |
| 31 | CC[C@]12c3[nH]c4ccc(OC)cc4c3CCN1C(=O)C(CC(=O)NCCc1ccccn1)C[C@@H]2C(=O)N1CCN(C(=O)C2CC2)CC1 (stereo partly drawn) | inconclusive: 47.5% |
| 33 | CN(CC(=O)Nc1ccc(F)c(F)c1F)C(=O)c1ccc2c(c1)S(=O)(=O)N=C1CCCCCN12 | inconclusive: 29.5% |
| 37 | CC(C)(C)CC(C)(C)c1ccc(OCCOCC[N+](C)(C)Cc2ccccc2)cc1 | inactive: 9.14% |
| 38 | CC=Cc1ccc2n(c1=O)C[C@H]1[C@H](CO)[C@@H](C(=O)N3CCCCC3)[C@@H]2N1Cc1ccccn1 (mixture of isomers) | inactive: 3.64% |
| 39 | O=C(NNC(=O)c1ccc(Br)o1)c1csc(N2CCOCC2)n1 | inconclusive: 21.6% |
| 40 | COc1ccc(S(=O)(=O)N(C)C[C@@H]2OCCCC[C@@H](C)Oc3ccc(NC(=O)Nc4ccc(C(F)(F)F)cc4)cc3C(=O)N([C@H](C)CO)C[C@H]2C)cc1 | active: 22.4% |
| 41 | CCCS(=O)(=O)c1ccc(COC(=O)c2cccc(NC(=O)C(C)C)c2)cc1 | inactive: -1.38% |
| 42 | CC[C@H](C)[C@@H]1NC(=O)c2cc([N+](=O)[O-])cc(I)c2SC[C@@H](C(N)=O)NC(=O)[C@H](CCCCN)NC1=O | inconclusive: 28.2% |
| 43 | CN1c2ccc(-c3ccccc3)cc2[C@@H]2[C@@H](CCN2C(=O)CN2CCOCC2)[C@@H]1CO | inconclusive: 73.9% |
